In article PMC9635879:
No constants are given. Whether binding was seen depends on the method and setting. Binding seen in cells or lysates may run through a third protein. Some binding calls cover weakened binding; strength is not graded here. Sequences can lack the tags named with a protein.

Sequences of proteins named here, by UniProt entry; tags and fusion partners are left off.
UniProt P99999: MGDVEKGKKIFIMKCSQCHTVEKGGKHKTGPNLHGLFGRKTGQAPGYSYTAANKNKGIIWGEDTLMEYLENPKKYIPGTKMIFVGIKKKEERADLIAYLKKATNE

Columns and labels:
[1] = molecular target: T1, FLAG-tagged human HIGD1C (HIGD1C-Myc-FLAG) (human) (UniProt A8MV81); assay: co-IP; FLAG-conjugated beads; 1 mg of mitochondria extracted in 1.5 M aminocaproic acid, 50 mM Bis-Tris pH 7, 1% digitonin; 2-3 hr at 4°C; SDS-PAGE and immunoblot of ETC subunits and cytochrome c; wild-type, HIGD1A-KO and HIGD2A-KO HEK293T cells
T1 sequence: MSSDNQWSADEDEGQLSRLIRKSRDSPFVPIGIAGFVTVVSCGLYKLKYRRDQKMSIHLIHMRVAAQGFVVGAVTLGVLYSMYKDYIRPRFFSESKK

[2] = molecular target: T2, FLAG-tagged mouse HIGD1C (Higd1c-Myc-FLAG) (mouse) (UniProt Q76I25); assay: as above
T2 sequence: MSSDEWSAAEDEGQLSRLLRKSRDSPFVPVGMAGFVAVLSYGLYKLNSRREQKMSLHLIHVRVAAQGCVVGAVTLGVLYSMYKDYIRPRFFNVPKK

“cytochrome c (from UniProt P99999 1-105)” was tested, and the binding [1] was “binds” and the binding [2] was “binds”.
